Results on one substance are retold here after patent US6552167B1 (Gryphon Therapeutics, Inc., priority 1998, dated 2003).

A short description of the series: general procedure: peptide synthesis; Sasrin resin (Bachem); HATU/DIEA. Particulars: conjugation step, several disulfide bridges.

As for “amide-GRLPQCVWTMPGMHCAYLGG-COCH2ON═CH—CO-(‘PEG’-succ)12-‘PEG’-CH═NOCH2CO-GGLYACHMGPMTWVCQPLRG-amide”, the conjugation yield came to 20%.
